# Results as given in paper PMC8877046, “Interferon-β Activity Is Affected by S100B Protein” (International Journal of Molecular Sciences, 2013).
# These are yes or no findings as the source states them, for the method shown. Some binding calls cover weakened binding; strength is not graded here.
# T1: Human S100B protein (human) (UniProt P04271)
# T1 sequence: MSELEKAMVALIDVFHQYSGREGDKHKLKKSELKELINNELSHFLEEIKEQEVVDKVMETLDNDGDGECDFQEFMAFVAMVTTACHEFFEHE
# T2: Human interferon beta-1a (IFN-β, Rebif) (human), P01574
# T2 chain: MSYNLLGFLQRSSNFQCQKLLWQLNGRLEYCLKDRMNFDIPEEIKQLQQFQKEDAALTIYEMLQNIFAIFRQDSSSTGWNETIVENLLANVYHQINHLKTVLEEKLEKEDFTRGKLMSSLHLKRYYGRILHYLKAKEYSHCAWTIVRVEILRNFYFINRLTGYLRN
# Key:
# [1] = target: T1, Human S100B protein (human); experiment: SPR; S100B immobilised by amine coupling with IFN-β bound; regeneration of the chip by passage of 5 mM EDTA pH 8.0 for 200 s; both purified
# [2] = target: T2, Human interferon beta-1a (IFN-β, Rebif) …; experiment: cross-linking; 5 µM IFN-β with 10 µM Ca2+-depleted S100B (1:2), and 10 µM apo-S100B alone; 40 mM EDAC, 10 mM sulfo-NHS, 25 °C, 1.5 h; 10 mM HEPES, 150 mM NaCl, pH 7.4, without CaCl2 and without chelator; authors say the samples could be contaminated by Ca2+; both purified; details: remark: other sources report otherwise
# [3] = target: T2, Human interferon beta-1a (IFN-β, Rebif) …; experiment: cross-linking; 5 µM IFN-β with S100B at S100B to IFN-β molar ratios 0.5:1, 1:1, 2:1, and 10 µM S100B alone; 40 mM EDAC, 10 mM sulfo-NHS, 25 °C, 1.5 h; 10 mM HEPES, 150 mM NaCl, pH 7.4, 1 mM CaCl2 (Ca2+-bound S100B); SDS-PAGE, silver staining; both purified; details: remark: other sources report otherwise
# [4] = target: Human interferon beta-1a (IFN-β, Rebif) (human) (UniProt P01574); experiment: other fluorescence titration; tryptophan fluorescence of 0.5 µM IFN-β (excitation 295 nm) titrated by S100B; 25 °C; 10 mM HEPES-NaOH, 150 mM NaCl, 5 mM EDTA, pH 7.4; both purified
molecule,measurement,setting,value
"Human interferon beta-1a (IFN-β, Rebif) (from UniProt P01574 22-187) (ligand)",binding,[1],no binding (condition: with 5 mM EDTA)
"Human S100B protein, P04271 1-92 (natural protein) MSELEKAMVALIDVFHQYSGREGDKHKLKKSELKELINNELSHFLEEIKEQEVVDKVMETLDNDGDGECDFQEFMAFVAMVTTACHEFFEHE",binding,[2],binds
same,binding,[3],binds
"Human S100B protein (natural protein, human S100B, UniProt P04271; crystal structure of Ca2+-loaded human S100B dimer PDB 5D7F chains A and B; The authors take the S100B that was amine-coupled to the SPR chip to be partly converted to the monomer; also called apo-S100B; Ca^2+-loaded S100B) MSELEKAMVALIDVFHQYSGREGDKHKLKKSELKELINNELSHFLEEIKEQEVVDKVMETLDNDGDGECDFQEFMAFVAMVTTACHEFFEHE",binding,[4],no binding (condition: with 5 mM EDTA)
